We go through 22 compounds from the odorant receptor screen of Mainland et al. (2015).

Values joined by “and” are separate entries in the source; they are usually repeats but may differ in a detail not shown here. Identical values can stand only once. This is one part of the list. Each value is one well over the wells without odorant, computed here; the data are noisy.

The test relates to OR6K3 clone 1485. As to the kind of experiment: odorant receptor activation (CRE luciferase / Renilla) (fold of no-odor wells); higher = more activation. Conditions: 100 µM.
As to `CC(C)(C)c1ccc(CCC=O)cc1` [bourgeonal], the odorant receptor activation was determined as 0.823.

Regarding `CC(=O)c1ccccc1` [acetophenone], the odorant receptor activation is 0.69 and 0.803.

Regarding `CCCCCCCCC=O` [nonyl aldehyde], the odorant receptor activation came out at 0.879.

Regarding `CCCCCC(=O)O` [caproic acid], the odorant receptor activation came to 0.852.

In the case of `CC1=CCC(C(C)(C)O)CC1` (configuration not stated) [terpineol], the odorant receptor activation was 0.829.

Compound `CCCCCCCCOC(C)=O` [octyl acetate] yielded an odorant receptor activation of 0.901.

In the case of `COC(=O)c1ccccc1` [methyl benzoate], the odorant receptor activation is 0.506 and 0.925.

On to `O=C1CCCCCCCCCCCCCCO1` [pentadecalactone], for which the odorant receptor activation was found to be 1.04.

Consider `COc1cc(C)ccc1O` [2-methoxy-4-methylphenol], for which the odorant receptor activation was found to be 0.797.

Compound `CC12C=CCC1C1CCC3CC(=O)CCC3(C)C1CC2` (configuration not stated) [androstenone] returned an odorant receptor activation of 0.987.

Regarding `CCCCCCCOC(C)=O` [heptyl acetate], the odorant receptor activation is 1.18 and 1.21.

Take `CC1=NC(C)SC1C` (configuration not stated): the odorant receptor activation is 0.879 and 1.15.

As to `CC(C)C=O` [isobutyraldehyde], the odorant receptor activation is 1.21 and 1.

Regarding `C=CC(C)(O)CCC=C(C)C` (configuration not stated) [linalool], the odorant receptor activation worked out at 1.19.

Compound `O=CCc1ccccc1` [phenyl acetaldehyde] had an odorant receptor activation of 1.34.

Take `CCCCCCCCCCC=O` [undecanal]: the odorant receptor activation is 1.16.

Regarding `CCCCCC(C)=O` [2-heptanone], the odorant receptor activation is 0.75 and 0.836.

On to `CC(C)C(=O)O` [isobutyric acid], for which the odorant receptor activation was 1.11 and 1.1.

Turning to `O=C1CCCCC1` [Cyclohexanone], the odorant receptor activation was 0.521 and 1.09.

Turning to `CC(C)CCC(=O)O` [4-methylvaleric acid], the odorant receptor activation amounted to 0.753.

With `CCCCCOC(C)=O` [n-amyl acetate], the odorant receptor activation was 0.421 and 0.81.

Consider `CC12C=CCC1C1CCC3=CC(=O)CCC3(C)C1CC2` (configuration not stated) [androstadienone], for which the odorant receptor activation is 1.16 and 1.27.
